The other results are listed elsewhere or left out. These are raw signals, not scaled to a control.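 First-pass screen: polymyxin B was added at a level that permeabilizes the Salmonella outer membrane while sparing the inner membrane. DMSO wells, with and without polymyxin B, defined maximum growth. Because plates differed from one another, each plate's data were ranked separately and the compounds with the lowest OD600 were carried forward as hits.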
Test system: Salmonella enterica serovar Typhimurium SL1344
Test: bacterial growth OD600 after 18 h with compound and polymyxin B; higher = more bacterial growth (less inhibition)
Details: 50 µM, Mueller-Hinton broth

Structure (SMILES)	bacterial growth OD600 (polymyxin B 1 µg/mL)	bacterial growth OD600 (polymyxin B 0.75 µg/mL)
C=C(C)CNc1ccc(C(=O)N(CC)Cc2nccn2C)cn1	0.988	
O=C(NCCC1CCCCO1)c1coc(COc2cccc(F)c2)n1 (stereo not given)	0.972	
C=CCNC1CCN(c2ccc(NC(=O)CCc3ccccc3)cc2)CC1		0.788
COc1ccc([C@@H]2C[C@H]3CN(Cc4ccccc4C)C(=O)[C@]34CCCN24)cc1O	0.884	
O=C(NCCc1ccc(F)cc1)c1cn(C2CCCC2)cc(C(=O)N2CCCCC2)c1=O		0.841
C=C(C)CN(C)C(=O)CC(c1ccccc1)c1ccc(OC)cc1 (stereo not given)	0.029	
COCCN1CCCC2(CCN(C(=O)CCc3cccs3)C2)C1=O (stereo not given)	1.07	
CCN1CCN(C2(C(=O)NCCC3CCCCO3)Cc3ccccc3C2)CC1 (stereo not given)		0.975
COc1cccc(OCC(O)CN2C(=O)CCC2CCNCc2cc3c(cc2Cl)OCO3)c1 (stereo not given)		0.933
O=C(CCc1ccc(=O)[nH]n1)N1CCCC(CNC(=O)C2(c3ccc(Cl)cc3)CC2)C1 (stereo not given)	0.713	
CCCN1CCCC1C(=O)Nc1ccccc1-c1ccc(OC)cc1 (stereo not given)		0.004
O=C(CC(c1ccccc1)c1ccc2c(c1)OCO2)NCCc1c[nH]cn1 (stereo not given)		0.756
CCOc1cc(CN2CCCC(CO)(Cc3ccccc3F)C2)ccc1OC (stereo not given)	0.787	
CCc1csc(CNC(=O)c2ccc(N(C)CC3CCCO3)nc2)n1 (stereo not given)	1.14	
CCN(CC)C(=O)Cn1cc(C(=O)N(C)Cc2n[nH]c3c2CCCC3)nn1	0.905	
CCC1CN(CC(=O)N2CCN(c3ccc(Cl)cn3)CC2)Cc2cc(OC)ccc2O1 (stereo not given)		0.493
Cc1occc1C(=O)N(C)C(Cc1ccccc1)C1CCN(C(=O)c2cnn(-c3ccccc3)c2)CC1 (stereo not given)		0.301
COc1cc(CNC2CCN(c3ccc(C(=O)NC(C)c4ccccc4)cc3)CC2)cc(OC)c1 (stereo not given)		0.788
CN1CCC(CN(CCc2ccccc2)C(=O)/C=C/c2ccccn2)CC1	0.829	
CN(CC1CCCN(CCc2ccc(Cl)cc2)C1)C(=O)C1=CCCC1 (stereo not given)	0.92	

Arranged by SMILES length (low to high): 3 of the compounds above.
Structure (SMILES)	bacterial growth OD600 (polymyxin B 1 µg/mL)	bacterial growth OD600 (polymyxin B 0.75 µg/mL)
CCOc1cc(CN2CCCC(CO)(Cc3ccccc3F)C2)ccc1OC (stereo not given)	0.787	
CCC1CN(CC(=O)N2CCN(c3ccc(Cl)cn3)CC2)Cc2cc(OC)ccc2O1 (stereo not given)		0.493
O=C(CCc1ccc(=O)[nH]n1)N1CCCC(CNC(=O)C2(c3ccc(Cl)cc3)CC2)C1 (stereo not given)	0.713	
